Measurements reported in the supplement of paper PMC12823440, “Inhibitors supercharge kinase turnover through native proteolytic circuits” (Nature, 2025).
The list shows a part of the results. Hit calls seldom repeat between salt and free forms of one compound.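 In K562 cells expressing nanoluciferase-fused kinases, luminescence was recorded at 4 h intervals between 2 and 18 h, normalized as percent of control with DMSO at 100% and a positive control at 0%. A significant (2 sigma) signal drop marks a time point as decreased. The authors' rule for a hit is not shown and takes in more than the number of time points.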

Chains of the proteins cited; added tags and fusions are not shown. Lines headed by an entry give the natural chain unless they say otherwise; changes in a name come on top.
UniProt Q01974, whole entry: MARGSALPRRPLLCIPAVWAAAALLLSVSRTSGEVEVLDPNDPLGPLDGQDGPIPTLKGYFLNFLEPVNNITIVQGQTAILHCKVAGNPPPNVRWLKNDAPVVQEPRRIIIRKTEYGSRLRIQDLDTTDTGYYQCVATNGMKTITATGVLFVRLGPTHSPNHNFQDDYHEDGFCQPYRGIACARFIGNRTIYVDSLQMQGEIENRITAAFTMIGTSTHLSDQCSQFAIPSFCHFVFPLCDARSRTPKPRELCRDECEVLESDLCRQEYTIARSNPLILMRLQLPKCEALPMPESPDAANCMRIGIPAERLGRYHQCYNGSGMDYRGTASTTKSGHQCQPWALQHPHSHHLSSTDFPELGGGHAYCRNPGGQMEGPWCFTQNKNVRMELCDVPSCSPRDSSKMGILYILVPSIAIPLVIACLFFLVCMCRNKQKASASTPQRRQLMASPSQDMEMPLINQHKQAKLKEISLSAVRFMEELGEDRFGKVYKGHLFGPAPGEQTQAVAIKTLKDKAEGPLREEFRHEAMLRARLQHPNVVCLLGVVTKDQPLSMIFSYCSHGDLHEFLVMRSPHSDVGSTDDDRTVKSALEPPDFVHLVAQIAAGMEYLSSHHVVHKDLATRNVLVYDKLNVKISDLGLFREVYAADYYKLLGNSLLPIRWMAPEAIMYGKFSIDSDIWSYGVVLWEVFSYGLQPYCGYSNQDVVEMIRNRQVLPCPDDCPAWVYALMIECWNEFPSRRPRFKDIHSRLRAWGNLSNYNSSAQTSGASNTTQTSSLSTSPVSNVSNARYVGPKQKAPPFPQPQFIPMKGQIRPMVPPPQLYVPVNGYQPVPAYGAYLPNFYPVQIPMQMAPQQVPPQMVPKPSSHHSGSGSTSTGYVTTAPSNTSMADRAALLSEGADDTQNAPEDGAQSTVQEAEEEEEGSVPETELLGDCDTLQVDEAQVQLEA
UniProt Q15418, whole entry: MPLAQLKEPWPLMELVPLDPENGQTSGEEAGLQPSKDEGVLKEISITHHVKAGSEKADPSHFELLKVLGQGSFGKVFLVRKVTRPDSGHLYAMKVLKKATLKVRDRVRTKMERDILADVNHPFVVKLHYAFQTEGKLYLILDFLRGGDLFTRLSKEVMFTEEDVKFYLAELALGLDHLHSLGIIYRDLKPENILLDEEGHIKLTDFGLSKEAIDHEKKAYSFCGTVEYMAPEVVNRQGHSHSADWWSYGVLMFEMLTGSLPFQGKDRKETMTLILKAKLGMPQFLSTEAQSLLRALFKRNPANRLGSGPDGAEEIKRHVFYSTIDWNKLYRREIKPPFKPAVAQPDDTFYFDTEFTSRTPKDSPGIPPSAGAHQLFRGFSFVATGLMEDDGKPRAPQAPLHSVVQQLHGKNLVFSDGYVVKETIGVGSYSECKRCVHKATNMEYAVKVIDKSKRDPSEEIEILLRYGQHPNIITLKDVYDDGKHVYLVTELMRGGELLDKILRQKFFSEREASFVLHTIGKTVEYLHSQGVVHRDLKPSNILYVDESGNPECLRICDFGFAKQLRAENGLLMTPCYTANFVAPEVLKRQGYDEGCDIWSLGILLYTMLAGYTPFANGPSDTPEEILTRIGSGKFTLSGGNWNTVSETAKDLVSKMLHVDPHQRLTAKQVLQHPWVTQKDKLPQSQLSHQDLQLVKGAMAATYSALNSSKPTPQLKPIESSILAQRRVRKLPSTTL
UniProt Q9NYA1, whole entry: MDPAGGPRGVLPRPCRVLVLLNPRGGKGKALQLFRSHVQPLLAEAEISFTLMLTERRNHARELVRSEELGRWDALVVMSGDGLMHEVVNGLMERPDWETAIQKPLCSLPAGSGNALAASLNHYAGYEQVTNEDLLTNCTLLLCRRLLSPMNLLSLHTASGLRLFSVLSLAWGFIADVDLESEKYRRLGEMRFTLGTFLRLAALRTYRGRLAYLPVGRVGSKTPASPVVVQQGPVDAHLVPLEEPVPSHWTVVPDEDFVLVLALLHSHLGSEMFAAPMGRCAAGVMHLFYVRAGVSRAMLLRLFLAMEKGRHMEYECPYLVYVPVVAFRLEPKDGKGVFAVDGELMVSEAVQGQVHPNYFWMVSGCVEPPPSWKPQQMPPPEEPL
UniProt Q9Y6E0: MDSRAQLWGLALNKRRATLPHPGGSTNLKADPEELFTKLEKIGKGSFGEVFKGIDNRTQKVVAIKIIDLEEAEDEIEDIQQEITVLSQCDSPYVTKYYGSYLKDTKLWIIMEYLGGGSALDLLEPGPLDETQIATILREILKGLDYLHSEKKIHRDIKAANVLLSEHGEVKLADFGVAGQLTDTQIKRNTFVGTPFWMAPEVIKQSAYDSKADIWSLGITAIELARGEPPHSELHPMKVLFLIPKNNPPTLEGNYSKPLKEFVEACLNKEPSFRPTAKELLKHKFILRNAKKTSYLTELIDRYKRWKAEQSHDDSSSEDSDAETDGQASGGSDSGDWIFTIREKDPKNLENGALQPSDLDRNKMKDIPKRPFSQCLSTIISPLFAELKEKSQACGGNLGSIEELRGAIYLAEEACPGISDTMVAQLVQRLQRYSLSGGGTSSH
UniProt Q15208: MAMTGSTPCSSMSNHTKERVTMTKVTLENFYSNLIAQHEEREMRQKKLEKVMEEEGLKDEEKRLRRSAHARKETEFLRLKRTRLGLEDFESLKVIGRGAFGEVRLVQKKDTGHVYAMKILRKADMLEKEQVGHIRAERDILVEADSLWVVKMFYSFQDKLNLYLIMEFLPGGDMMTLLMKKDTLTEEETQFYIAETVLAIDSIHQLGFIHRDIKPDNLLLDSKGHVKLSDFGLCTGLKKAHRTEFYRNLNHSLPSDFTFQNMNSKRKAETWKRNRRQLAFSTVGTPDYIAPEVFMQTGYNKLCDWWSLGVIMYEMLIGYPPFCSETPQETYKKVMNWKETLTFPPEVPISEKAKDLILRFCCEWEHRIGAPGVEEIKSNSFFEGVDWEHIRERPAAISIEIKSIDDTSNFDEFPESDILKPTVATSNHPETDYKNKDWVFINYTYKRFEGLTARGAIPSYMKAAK
UniProt P42680: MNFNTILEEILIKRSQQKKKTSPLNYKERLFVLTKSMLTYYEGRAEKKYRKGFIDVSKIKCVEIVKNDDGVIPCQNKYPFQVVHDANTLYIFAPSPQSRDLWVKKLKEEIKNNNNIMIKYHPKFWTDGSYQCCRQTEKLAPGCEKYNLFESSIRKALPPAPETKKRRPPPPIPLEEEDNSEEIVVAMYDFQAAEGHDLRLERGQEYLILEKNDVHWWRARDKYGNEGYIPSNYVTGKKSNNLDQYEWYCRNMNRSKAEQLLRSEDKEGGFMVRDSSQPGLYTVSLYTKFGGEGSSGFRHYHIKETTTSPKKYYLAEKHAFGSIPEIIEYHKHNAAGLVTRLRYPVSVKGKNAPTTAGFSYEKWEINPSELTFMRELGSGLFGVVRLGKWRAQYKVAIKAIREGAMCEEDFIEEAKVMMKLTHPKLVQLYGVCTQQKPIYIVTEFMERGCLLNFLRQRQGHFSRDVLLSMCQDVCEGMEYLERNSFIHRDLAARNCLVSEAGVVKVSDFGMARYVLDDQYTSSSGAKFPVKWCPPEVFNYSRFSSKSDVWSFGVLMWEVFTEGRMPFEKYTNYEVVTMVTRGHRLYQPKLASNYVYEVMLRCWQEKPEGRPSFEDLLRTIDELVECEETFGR
UniProt P29597: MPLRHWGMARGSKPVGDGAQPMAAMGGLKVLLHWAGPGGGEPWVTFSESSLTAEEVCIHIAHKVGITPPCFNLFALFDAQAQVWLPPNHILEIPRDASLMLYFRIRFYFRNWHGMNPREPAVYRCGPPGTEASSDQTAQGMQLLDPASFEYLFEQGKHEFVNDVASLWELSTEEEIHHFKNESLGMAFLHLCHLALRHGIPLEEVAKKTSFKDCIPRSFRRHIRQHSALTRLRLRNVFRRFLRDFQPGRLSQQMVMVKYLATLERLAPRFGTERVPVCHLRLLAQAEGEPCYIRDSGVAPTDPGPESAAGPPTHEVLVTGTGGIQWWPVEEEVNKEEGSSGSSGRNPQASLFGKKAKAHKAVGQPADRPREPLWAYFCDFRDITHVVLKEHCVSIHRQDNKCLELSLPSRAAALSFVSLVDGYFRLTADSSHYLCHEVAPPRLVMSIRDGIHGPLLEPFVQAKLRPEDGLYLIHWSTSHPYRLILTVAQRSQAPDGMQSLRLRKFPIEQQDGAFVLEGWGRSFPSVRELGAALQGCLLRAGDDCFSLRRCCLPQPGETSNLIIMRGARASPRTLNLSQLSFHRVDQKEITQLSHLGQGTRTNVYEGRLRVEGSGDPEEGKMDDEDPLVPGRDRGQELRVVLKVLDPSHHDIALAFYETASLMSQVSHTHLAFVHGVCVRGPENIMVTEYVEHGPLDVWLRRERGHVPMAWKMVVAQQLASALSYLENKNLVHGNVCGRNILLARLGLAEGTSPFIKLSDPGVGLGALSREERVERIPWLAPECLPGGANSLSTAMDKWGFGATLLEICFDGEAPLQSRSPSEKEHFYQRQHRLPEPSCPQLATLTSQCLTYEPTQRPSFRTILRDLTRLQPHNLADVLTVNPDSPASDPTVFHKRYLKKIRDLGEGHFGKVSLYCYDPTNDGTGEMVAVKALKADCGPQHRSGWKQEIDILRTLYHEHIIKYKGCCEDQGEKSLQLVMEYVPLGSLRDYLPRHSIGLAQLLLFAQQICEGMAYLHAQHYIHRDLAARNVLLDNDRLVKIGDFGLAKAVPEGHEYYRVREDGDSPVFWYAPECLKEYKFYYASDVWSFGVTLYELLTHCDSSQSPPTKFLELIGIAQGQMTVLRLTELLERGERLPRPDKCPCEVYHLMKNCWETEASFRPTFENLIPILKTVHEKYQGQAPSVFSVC
UniProt Q6PHR2: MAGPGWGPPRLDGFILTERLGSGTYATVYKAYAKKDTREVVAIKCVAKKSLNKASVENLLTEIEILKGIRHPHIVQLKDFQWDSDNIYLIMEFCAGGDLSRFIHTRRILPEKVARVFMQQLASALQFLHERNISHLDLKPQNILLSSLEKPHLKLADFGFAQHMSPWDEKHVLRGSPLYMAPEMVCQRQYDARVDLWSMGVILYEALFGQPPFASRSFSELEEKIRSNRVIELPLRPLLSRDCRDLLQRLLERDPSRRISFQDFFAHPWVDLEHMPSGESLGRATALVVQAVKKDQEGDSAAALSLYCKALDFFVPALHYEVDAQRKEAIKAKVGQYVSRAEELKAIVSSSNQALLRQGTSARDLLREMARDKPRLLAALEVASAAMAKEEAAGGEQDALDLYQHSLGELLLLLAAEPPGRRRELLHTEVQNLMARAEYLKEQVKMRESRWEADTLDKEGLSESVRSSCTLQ
UniProt P43403: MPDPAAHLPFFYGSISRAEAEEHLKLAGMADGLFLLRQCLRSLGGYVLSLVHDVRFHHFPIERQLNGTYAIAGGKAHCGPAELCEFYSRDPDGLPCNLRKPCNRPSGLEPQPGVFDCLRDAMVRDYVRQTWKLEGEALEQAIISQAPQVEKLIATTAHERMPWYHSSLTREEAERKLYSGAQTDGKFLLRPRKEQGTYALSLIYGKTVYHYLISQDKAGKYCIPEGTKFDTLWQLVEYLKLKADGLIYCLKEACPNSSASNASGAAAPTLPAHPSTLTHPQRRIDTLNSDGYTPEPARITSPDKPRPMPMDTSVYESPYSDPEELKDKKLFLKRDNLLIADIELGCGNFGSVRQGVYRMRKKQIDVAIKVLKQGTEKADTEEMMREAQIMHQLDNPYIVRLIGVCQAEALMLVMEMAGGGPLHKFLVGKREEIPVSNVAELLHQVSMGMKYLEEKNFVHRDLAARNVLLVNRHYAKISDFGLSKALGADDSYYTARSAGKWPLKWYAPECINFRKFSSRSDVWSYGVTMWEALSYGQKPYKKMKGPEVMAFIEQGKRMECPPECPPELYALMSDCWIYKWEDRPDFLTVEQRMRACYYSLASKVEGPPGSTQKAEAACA
UniProt P11802: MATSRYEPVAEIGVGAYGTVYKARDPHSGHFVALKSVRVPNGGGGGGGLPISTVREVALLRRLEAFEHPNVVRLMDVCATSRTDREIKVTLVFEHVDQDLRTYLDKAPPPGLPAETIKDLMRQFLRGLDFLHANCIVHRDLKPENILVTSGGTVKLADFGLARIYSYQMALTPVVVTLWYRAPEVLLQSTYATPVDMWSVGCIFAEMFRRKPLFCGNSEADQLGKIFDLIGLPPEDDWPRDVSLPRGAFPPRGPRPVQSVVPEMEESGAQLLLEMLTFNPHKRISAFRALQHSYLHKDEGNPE
UniProt P50750, whole entry: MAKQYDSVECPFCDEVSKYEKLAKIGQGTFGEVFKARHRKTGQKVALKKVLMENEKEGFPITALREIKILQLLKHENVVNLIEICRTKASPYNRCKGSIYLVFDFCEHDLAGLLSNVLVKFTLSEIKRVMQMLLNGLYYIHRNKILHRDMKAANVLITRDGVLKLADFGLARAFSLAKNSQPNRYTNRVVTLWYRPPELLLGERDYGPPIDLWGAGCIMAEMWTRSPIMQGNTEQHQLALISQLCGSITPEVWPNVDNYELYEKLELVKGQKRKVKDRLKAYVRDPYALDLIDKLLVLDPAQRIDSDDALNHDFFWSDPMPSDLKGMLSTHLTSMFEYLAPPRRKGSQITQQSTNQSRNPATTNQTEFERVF

Key:
Settings in all cases: K562; 2-18 h
[1] = target: ROR2 (UniProt Q01974); assay: number of time points (of 5) at which kinase-Nluc abundance scored as decreased, DMSO-normalised (count); higher = more persistent destabilization
[2] = target: RPS6KA1 (UniProt Q15418); assay: as above
[3] = target: SPHK1 (UniProt Q9NYA1); assay: as above
[4] = target: SRC (UniProt P12931); assay: as above
[5] = target: STK24 (UniProt Q9Y6E0); assay: as above
[6] = target: STK38 (UniProt Q15208); assay: as above
[7] = target: SYK (UniProt P43405); assay: as above
[8] = target: TEC (UniProt P42680); assay: as above
[9] = target: TYK2 (UniProt P29597); assay: as above
[10] = target: ULK3 (UniProt Q6PHR2); assay: as above
[11] = target: YES1 (UniProt P07947); assay: as above
[12] = target: ZAK (UniProt Q9NYL2); assay: as above
[13] = target: ZAP70 (UniProt P43403); assay: as above
[14] = target: CDK4 (UniProt P11802); assay: number of time points (of 4; 2 h point missing) at which kinase-Nluc abundance scored as decreased, DMSO-normalised (count); higher = more persistent destabilization
[15] = target: CDK7 (UniProt P50613); assay: as above
[16] = target: CDK9 (UniProt P50750); assay: as above

Measured: number of time points

Cn1c2cc([S+](C)[O-])sc2c2cnn(Cc3cccc(N)c3)c(=O)c21 (stereo not drawn) (2.5 µM)
0: all assays above

COc1cc(-c2cc(-c3ccc(N4CCNCC4)cc3)cnc2C)cc(OC)c1OC (10 µM)
0: all assays above

O=C(Nc1cc(Cl)cc2c1[nH]c1cnccc12)c1cccnc1 (10 µM)
0: all assays above

Cc1cc(Nc2cc(N3CCN(C)CC3)nc(Nc3ccc([N+](=O)[O-])cc3)n2)n[nH]1 (2.5 µM)
0: all assays above

Cc1cccc(-c2[nH]ncc2-c2ccnc3ccccc23)n1 (10 µM)
0: all assays above

C=C1C(=O)[C@@]23[C@H](O)C[C@@H]4C(C)(C)C(=O)CC[C@@]4(C)[C@@H]2CC[C@@H]1[C@H]3O [Glaucocalyxin A] (2.5 µM)
0: all assays above

Cc1cc(O)c2c(c1)C(=O)c1cccc(O)c1C2=O [Chrysophanol] (2 µM)
0: all assays above

Nc1ncc(C(=O)NC2CN(C(=O)C3CC3)C2)c2ccc(-c3cccc(F)c3)nc12 (2 µM)
0: all assays above

Cc1cc([C@@H](C)Nc2ccccc2C(=O)O)c2nc(N3CCOCC3)cc(=O)n2c1 (10 µM)
0: all assays above

CNC(=O)c1cc2c(Oc3ccc(NC(=O)C4(C(=O)Nc5ccc(F)cc5)CC4)cc3)ccnc2cc1OC (2.5 µM)
2: [16]
1: [6] | [11] | [12]
3: [9] | [10] | [15]
0: all other assays above

CC(C)(C)Cc1[nH]nc2c1[C@@](C)(c1ccccc1)C1=C(CC(C)(C)CC1=O)N2 (10 µM)
0: all assays above

NCC1CCC(CNc2nc(NCc3ccccc3OC(F)(F)F)ncc2[N+](=O)[O-])CC1 (stereo not drawn) [PKC-theta inhibitor] (10 µM)
1: [16]
2: [15]
5: [9]
0: all other assays above

Cc1cc(C(=O)Nc2nc3cccc(Cl)c3n2[C@@H]2CCCCN(C(=O)/C=C/CN(C)C)C2)ccn1 [Nazartinib] (10 µM)
0: all assays above

CN(C)c1ccc(-c2nc3ncc(Cl)c(N4CCN(CC(=O)Nc5nccs5)CC4)c3[nH]2)cc1 (2 µM)
0: all assays above

CC(Cc1ccc(O)c(O)c1)C(C)Cc1ccc(O)c(O)c1 (stereo not drawn) [Nordihydroguaiaretic acid] (2.5 µM)
0: all assays above

Cn1ncc(NC(=O)c2nc(-c3c(F)cccc3F)sc2N)c1N1CC[C@@H](N)[C@H](F)CC1 (10 µM)
0: all assays above

CC(C)n1ncnc1-c1cn2c(n1)-c1ccc(O[C@@H](C)C(N)=O)cc1OCC2 (10 µM)
0: all assays above

COc1cc(N2CCOCC2)ccc1Nc1ncc(F)c(Nc2ccccc2NS(C)(=O)=O)n1 (10 µM)
0: all assays above

COc1cc2ncnc(Nc3ccc(O)c(Br)c3)c2cc1OC (10 µM)
0: all assays above

CO[C@H]1C[C@@H]2CC[C@@H](C)[C@@](O)(O2)C(=O)C(=O)N2CCCC[C@H]2C(=O)O[C@H]([C@H](C)C[C@@H]2CC[C@@H](OC(=O)C(C)(CO)CO)[C@H](OC)C2)CC(=O)[C@H](C)/C=C(\C)[C@@H](O)[C@@H](OC)C(=O)[C@H](C)C[C@H](C)/C=C/C=C/C=C/1C [Temsirolimus] (2.5 µM)
0: all assays above

COc1cc2cc(Oc3ccc4ccc(=O)oc4c3)c(=O)oc2cc1O [Daphnoretin] (10 µM)
0: all assays above

Nc1nc(NCCNc2ncc(-n3ccnc3)c(-c3ccc(Cl)cc3Cl)n2)ccc1[N+](=O)[O-] (2.5 µM)
0: all assays above

CC1CN(CC2CCN(Cc3ccccc3)CC2)C(=O)N(c2cccc(C(=N)N)c2)C1 (stereo not drawn) (10 µM)
0: all assays above

Fetched one by one from above (two):
Nc1ncc(C(=O)NC2CN(C(=O)C3CC3)C2)c2ccc(-c3cccc(F)c3)nc12 (2 µM)
0: all assays above

Cc1cc(Nc2cc(N3CCN(C)CC3)nc(Nc3ccc([N+](=O)[O-])cc3)n2)n[nH]1 (2.5 µM)
0: all assays above

(listing goes on)

COc1cc2c(cc1OC)/C(=C/c1ccc(O)cc1)C(=O)N2 (10 µM)
0: all assays above

Cc1nn(C)cc1-c1nc2c(N3CCN(Cc4ccc(Cl)cc4)CC3)c(Cl)cnc2[nH]1 (10 µM)
0: all assays above

COc1ccc(Br)cc1NC(=O)Nc1cccc2c1ccn2Cc1ccnc(N)c1 (2.5 µM)
0: all assays above

CO[C@H]1C[C@@H]2CC[C@@H](C)[C@@](O)(O2)C(=O)C(=O)N2CCCC[C@H]2C(=O)O[C@H]([C@H](C)C[C@@H]2CC[C@@H](OCCO)[C@H](OC)C2)CC(=O)[C@H](C)/C=C(\C)[C@@H](O)[C@@H](OC)C(=O)[C@H](C)C[C@H](C)/C=C/C=C/C=C/1C [Everolimus] (10 µM)
2: [9]
0: all other assays above

O=C(O)c1cc(N(Cc2ccccc2O)Cc2cc(O)ccc2O)ccc1O [Lavendustin A] (10 µM)
1: [12]
0: all other assays above
